Measurements as given in PubChem BioAssay AID602313 (National Center for Advancing Translational Sciences (NCATS), 2012).
Screen size: about 390,000 compounds; about 760 (0.19%) were called active. The shares of active, inactive and inconclusive entries below differ from those in the screen. The call rests on the fitted dose curve; in most records, active means well fitted inhibition curve with a large enough effect; inconclusive means small, poorly fitted or top-dose-only effect; inactive means flat fitted curve, though single readings scatter. Where the call is inconclusive, the potency comes from a doubtful curve fit.

Assay: qHTS for Inhibitors of Vif-A3F Interactions: qHTS; further: nearly all actives have a fitted effect of over 65% in size; on activity, negative = active: % of control where 0% means no effect
Conditions: HeLa A3F-eYFP + Vif (tagged APOBEC3F with the HIV-1 protein that degrades it), YFP fluorescence increase; series mostly up to 46.1 µM; activity, negative = active: at the top concentration
Outline: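 Fluorescence increase (Ex 488/Em 500-530) after overnight compound treatment at 37 deg C flags inhibition of Vif-driven A3F-eYFP loss in stable HeLa A3F-eYFP/Vif cells seeded overnight beforehand.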
Potency means the concentration at half of the fitted maximal effect.

| SMILES | Potency | activity, negative = active |
| --- | --- | --- |
| C=CCN1C(=O)/C(=C\c2ccc(OC(=O)c3ccco3)c(OC)c2)SC1=S | inconclusive: 31.6 µM [inhibitor, single point] |  |
| O=C(CCN1CCN(c2ccccc2)CC1)c1ccc(Cl)cc1 |  | inactive: 10.8% |
| COc1ccc(C2CC(=O)c3c([nH]c(C(=O)OCc4ccccc4)c3C)C2)cc1 (centres undefined) | inconclusive: 3.55 µM [inhibitor, partial curve] |  |
| c1ccc(CN2CCN(c3nc(N4CCOCC4)c4ccccc4n3)CC2)cc1 |  | inactive: 2.79% |
| C/C=C/Cn1c(Br)nc2c1c(=O)[nH]c(=O)n2C | inconclusive: 35.5 µM [inhibitor, single point] |  |
| O=C(NN(C(=O)C1CC1)c1nc2ccccc2s1)C1CC1 |  | inactive: -11% |
| Fc1ccc(Nc2nc(SCc3ccccc3Cl)nc3ccccc23)cc1 | inconclusive: 17.8 µM [inhibitor, single point] |  |
| COC(=O)C1=COC(C)C2CN3CCc4c([nH]c5ccccc45)C3CC12 (centres undefined) | inconclusive: 14.1 µM [inhibitor, single point] |  |
| O[C@@H]1[C@@H](O)C=C2CCN3Cc4cc5c(cc4[C@H]1C23)OCO5 (some centres undefined) | inconclusive: 3.55 µM [inhibitor, partial curve, poor fit] |  |
| Cc1ccc2nc(-c3cccc(SC4CCCCC4)c3)c(NCc3ccccc3)n2c1 | inconclusive: 35.5 µM [inhibitor, single point] |  |
| O=C(Nc1cccnc1Cl)c1cc2c(s1)-c1ccccc1OC2 |  | inactive: -1.83% |
| S=C1Cc2ccccc2N1 | inconclusive: 5.62 µM [inhibitor, single point] |  |
| CC1=CC(=Nc2c(C)n(C)n(-c3ccccc3)c2=O)C=C(C)C1=O | inconclusive: 35.5 µM [inhibitor, single point] |  |
| Cc1[nH]n2c(=O)cc(-c3ccc(Cl)cc3)nc2c1-c1ccccc1 | inconclusive: 6.31 µM [inhibitor, full curve, poor fit] |  |
| CCOc1ccccc1C(=O)NCC(=O)NNC(=O)c1cccc(S(=O)(=O)Nc2ccc(OC)cc2)c1 | inconclusive: 3.55 µM [inhibitor, partial curve, poor fit] |  |
| O=C(NC1CCCCC1)C1COc2ccccc2O1 (centres undefined) |  | inactive: -7.01% |
| COc1ccc(C2=NN(C(=O)c3ccccc3C(=O)O)C(c3ccccc3O)C2)cc1 (centres undefined) | inconclusive: 22.4 µM [inhibitor, partial curve, poor fit] |  |
| O=C(COC(=O)Cc1c(F)cccc1Cl)NC1CCS(=O)(=O)C1 (centres undefined) | inconclusive: 7.94 µM [inhibitor, partial curve] |  |
| CC(=O)c1cccc(N2Cc3ccccc3C2=NC(=O)CCl)c1 | inconclusive: 17.8 µM [inhibitor, partial curve, poor fit] |  |
| O=C(CN1C(=O)NC2(CCc3ccccc32)C1=O)c1c[nH]c2ccccc12 (centres undefined) | inconclusive: 3.16 µM [inhibitor, single point] |  |
| CCC(C)Sc1cc(-c2nc3ccccn3c2NC2CCCCC2)ccc1OC (centres undefined) | inconclusive: 6.31 µM [inhibitor, full curve, poor fit] |  |
| NNC(=S)Nc1ccc(Cl)cc1 | inconclusive: 35.5 µM [inhibitor, single point] |  |
| COC(=O)CC1C(=O)NCCN1C(=O)CSc1nnnn1-c1ccc(OC)cc1 (centres undefined) | inconclusive: 6.31 µM [inhibitor, single point] |  |

| SMILES | Potency | activity, negative = active |
| --- | --- | --- |
| COc1ccc(C(=O)c2sc(Nc3ccccc3)nc2C)cc1 |  | inactive: 11.5% |
| N#Cc1c(N)sc(=S)c2c1CCCCC2 | inconclusive: 17.8 µM [inhibitor, partial curve, poor fit] |  |
| Cc1ccc(/C=C2\SC(=S)N(CCC(=O)NNS(=O)(=O)c3ccc(C)cc3)C2=O)cc1 | inconclusive: 10 µM [inhibitor, partial curve, poor fit] |  |
| COc1ccc(OC)c(C2CC(=O)N3CN(c4cccc(Cl)c4C)CSC3=C2C#N)c1 (centres undefined) |  | inactive: 1.74% |
| COc1cc(N2CCCC2)c(OC)cc1/C=C(/C#N)c1ccc(Br)cc1 | active: 3.98 µM |  |
| CNC(=O)c1cc(S(=O)(=O)Nc2ccc(C)cc2C)ccc1C | inconclusive: 3.16 µM [inhibitor, single point] |  |
| CNc1ccc(Br)cc(C(=O)/C=C/c2ccc(OC)cc2OC)c1=O | inconclusive: 25.1 µM [inhibitor, single point] |  |
| COc1cccc(-c2nc(NCc3cccnc3)c3ccccc3n2)c1O | inconclusive: 35.5 µM [inhibitor, partial curve, poor fit] |  |
| COc1cccc(CN(C)CCCn2cnc3c(SC)ncnc32)c1 |  | inactive: -9.5% |
| CC/C(=N\Nc1ccc([N+](=O)[O-])cc1)c1ccccc1 | inconclusive: 11.2 µM [inhibitor, partial curve, poor fit] |  |
| Cc1ccc(Cl)cc1Nc1nn2c(=O)c3ccc(C(=O)Nc4ccc(F)cc4)cc3nc2s1 | inconclusive: 3.16 µM [inhibitor, single point] |  |
| CCN(CC)CCNC(=O)Cn1c(=O)c2cccn2c2ccc(F)cc21 | inconclusive: 35.5 µM [inhibitor, single point] |  |
| CCOc1ccccc1N1CCN(C(=O)c2ccc3nc(N)sc3c2)CC1 | inconclusive: 35.5 µM [inhibitor, single point] |  |
| O=C(Nc1ccccc1)Oc1ccc[nH]c1=O | inconclusive: 25.1 µM [inhibitor, single point] |  |
| CN(CC(=O)NCc1ccccc1)S(=O)(=O)c1ccc2c(c1)CCC(=O)N2 | inconclusive: 3.55 µM [inhibitor, partial curve, poor fit] |  |
| C=CCNc1nc(C(=O)OCC(=O)Nc2cccc(SC)c2)cs1 | inconclusive: 35.5 µM [inhibitor, single point] |  |
| COc1ccc(OCc2nnc(SCC(=O)Nc3ccccc3C#N)o2)cc1 | inconclusive: 20 µM [inhibitor, single point] |  |
| CCOc1ccccc1NC(=O)COC(=O)C1CC1 | inconclusive: 5.01 µM [inhibitor, single point] |  |
| CCCNC(=O)C1=CC(c2ccc3c(c2)OCO3)=NS(=O)(=O)N1C |  | inactive: 0.232% |
| CNc1ccc(SC#N)cc1 | inconclusive: 7.94 µM [inhibitor, partial curve, poor fit] |  |
| O=c1[nH]nc(SCCS(=O)(=O)c2ccc(F)cc2)n1-c1ccccc1 |  | inactive: 10.4% |
| COc1ccccc1NC(=O)C1CCN(S(=O)(=O)c2ccc3[nH]c4c(c3c2)CCCCC4)CC1 |  | inactive: 4.02% |
| O=C(NC(=S)NC1CCCCC1)c1ccc(F)cc1 | inconclusive: 35.5 µM [inhibitor, single point] |  |

| SMILES | Potency | activity, negative = active |
| --- | --- | --- |
| Cc1nn(-c2ccccc2)c2c1cc1c(=O)n(C)c(=O)nc-1n2-c1cccc(Cl)c1 |  | inactive: 1.97% |
| Cc1ccc(-c2n[nH]c(=S)n2C)cc1Cl | inconclusive: 35.5 µM [inhibitor, single point] |  |
| C/C(=N/NC(N)=S)c1cc2ccc(O)cc2oc1=O |  | inactive: 3.35% |
| N#Cc1cc(C(=O)c2ccccc2O)cn(-c2ccc(Cl)cc2)c1=O | inconclusive: 12.6 µM [inhibitor, partial curve, poor fit] |  |
| Cc1ccc(C(C[N+](=O)[O-])c2c(-c3ccccc3O)[nH][nH]c2=O)cc1 (centres undefined) |  | inactive: 3.14% |
| COc1ccc(CNC(=O)CN2C(=O)COc3ccc(S(=O)(=O)N4CCC(C)CC4)cc32)cc1 | inactive |  |
| CCc1nnc(NC(=O)c2sc3nc4c(cc3c2N)CCCCCC4)s1 | inconclusive: 20 µM [inhibitor, single point] |  |
| CCOc1cccc(C(=O)Nc2cccc(-c3nnc(-c4ccc(C)cc4)o3)c2)c1 |  | inactive: 6.66% |
| COC(=O)c1c(C)cc(OC(C)=O)c(C)c1OC(C)=O | inconclusive: 3.16 µM [inhibitor, single point] |  |
| Cc1nc(SCc2ccc(Br)cc2)[nH]c(=O)c1C |  | inactive: 5.93% |
| O=C(COc1ccccc1)Nc1ccc(NC(=O)c2ccco2)cc1 | inconclusive: 3.55 µM [inhibitor, single point] |  |
| COc1ccc([C@H]2C[C@H](n3cc(C4CC4)nn3)[C@@H](O)CN2CC2CCCCC2)cc1 | inconclusive: 35.5 µM [inhibitor, single point] |  |
| O=C1NC(c2ccco2)Nc2sc3c(c21)CCN(Cc1ccccc1)C3 (centres undefined) | inconclusive: 35.5 µM [inhibitor, single point] |  |
| CCOC(=O)C(Cc1ccccc1)NC(=O)CCc1c(C)nc2ncnn2c1C (centres undefined) |  | inactive: -5.9% |
| Cc1ccc(NNC(=O)c2snnc2C)cc1Cl |  | inactive: 0.68% |
| Nc1c(C(=O)O)sc2nc(-c3ccccc3)cc(-c3ccc(F)cc3)c12 | inconclusive: 7.08 µM [inhibitor, partial curve, poor fit] |  |
| CCN1CCCC1CNC(=O)c1ccc2c(c1)NC(=O)/C(=C\c1ccccc1Cl)S2 (centres undefined) | inconclusive: 14.1 µM [inhibitor, single point] |  |
| O=C(Nc1cccc(Cl)c1Cl)c1snnc1-c1ccccc1 |  | inactive: 2.15% |
| CS(=O)(=O)c1ccc(C(=O)OCC(=O)NC23CC4CC(CC(C4)C2)C3)cc1[N+](=O)[O-] | inconclusive: 0.631 µM [inhibitor, full curve, poor fit] |  |
| CCOc1cc(/C=C2/C(=O)NN(c3cccc(Cl)c3)C2=O)ccc1O | inconclusive: 25.1 µM [inhibitor, single point] |  |
| CCOC(=O)c1cc2c(=O)n3ccccc3nc2n(Cc2ccco2)c1=NC(=O)c1cccc(F)c1 | inconclusive: 35.5 µM [inhibitor, single point] |  |
| Fc1ccc(Nc2nc(SCc3ccccc3F)nc3ccccc23)cc1 | inconclusive: 35.5 µM [inhibitor, single point] |  |
| O=C(CCN1C(=O)/C(=C/c2ccccc2Cl)SC1=S)Nc1cccnc1 | inconclusive: 35.5 µM [inhibitor, single point] |  |

Entries listed so far containing a thiophene ring, fused or not, in the order listed:

| SMILES | Potency | activity, negative = active |
| --- | --- | --- |
| O=C(Nc1cccnc1Cl)c1cc2c(s1)-c1ccccc1OC2 |  | inactive: -1.83% |
| CCc1nnc(NC(=O)c2sc3nc4c(cc3c2N)CCCCCC4)s1 | inconclusive: 20 µM [inhibitor, single point] |  |
| O=C1NC(c2ccco2)Nc2sc3c(c21)CCN(Cc1ccccc1)C3 (centres undefined) | inconclusive: 35.5 µM [inhibitor, single point] |  |
| Nc1c(C(=O)O)sc2nc(-c3ccccc3)cc(-c3ccc(F)cc3)c12 | inconclusive: 7.08 µM [inhibitor, partial curve, poor fit] |  |
